The campaign covered roughly 53,000 sequences. About 3,700 (7%) were called active.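 The calls were made as follows: active = gene knockdowns whose robust z-score for IL-1 alpha signal is at least 2 or at most -2, so actives lie on both sides; inactive = the rest.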 Some of the results follow.

A short description of this assay: Components of the Cytosolic LPS Sensing Pathway: Gene Identification via Genome-wide siRNA Screen.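 Also: robust z of the log signal after scaling to non-targeting control siRNA wells of the plate.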 The following applies: RAW264.7 macrophages, IL-1a HTRF, actives lie on both sides, screened at 100 nM (by protocol), cells primed 5 h with Pam3CSK4 first. In a few lines: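 Mouse macrophage line RAW264.7 is transfected with siRNA (100 nM final), grown 48h, primed with TLR ligand Pam3CSK4 5 h and given intracellular LipidA 24 h. IL-1a in supernatant is read by HTRF and viability by luminescence.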
A general note: In TR-FRET formats the signal depends on donor and acceptor labels being close together.
As to GGAAUUCAAGAAAAGGAUCTT against Plvap, the z-score was inactive: 0.225.

Regarding GGCUAUGUACAAGACUAUGTT against Eif3j1, the z-score is inactive: -0.488.

Take CCCUAUUAAUCUCAUUGUGTT against P2rx4: the z-score was inactive: 0.555.

Consider “GGAUGGACAAAAUACUUAATT against B230354K17Rik”, for which the z-score was inactive: 1.99.

As for GGACAGGCUCUACCAGUAUTT against Syt15, the z-score was inactive: 0.151.

CGCGACUUCCACAAACCUGTT against LOC574530: the z-score was inactive: -1.15.

Take GGGUGUAAUAUCAAAAAAGTT against Atp7a: the z-score was inactive: 0.356.

On to “UUGUGGGCUUAUGGAUAUUTT against 9430025C20Rik”, for which the z-score is inactive: -0.659.

With GCUGUCAGAGUGGUGAUAUTT against Zdhhc7, the z-score was inactive: 0.513.

Consider GGCUAUUAGGUUUGAAAUCTT against Grsf1, for which the z-score is inactive: 0.351.

For GGAAGGUGAAGCCAGUUUCTT against Traf3ip2, the z-score was active: 2.02.

Take CCACGAGAUGGAAUAUCGCTT against Cyyr1: the z-score is inactive: -1.79.

For the sequence GGAUGCCAGAAGAAUAUUCTT against Pnlip, the z-score is active: 2.43.

In the case of GGUCUCAAAGAAGAGGAGUTT against Als2cl, the z-score is inactive: 1.61.

As to GGCCAGAAUAUCAUCGUCATT against Rbks, the z-score was inactive: -0.163.

Take GGCGGAAGUGUUAGACAUGTT against Art3: the z-score was inactive: -0.0617.

Take GGAGAAAAAGAGAAGUAUUTT against Skint9: the z-score was inactive: -0.874.

On to GGAUGUUCAUCUAUUUCUUTT against Scgb1b2, for which the z-score was inactive: -0.626.

In the case of CCGAUUCAGGUAUUGCACGTT against Prkra, the z-score was inactive: 1.06.

Regarding GGAGAAAGCACUCAAUUUGTT against Dlgap4, the z-score was inactive: -0.995.

For GGAACAUCAGGUGCAUGUGTT against Pkd1, the z-score is inactive: -1.79.

Turning to UCAGUGUGCUGUUUCUUUUTT against Olfr1359, the z-score is inactive: -1.21.

With CCCUCUAGGUUCUUUAGCCTT against Sox7, the z-score is inactive: -0.339.

With GGGCUAAAUUAAGCUUCUATT against Sowahd, the z-score is inactive: -0.707.

GGAAUUAACAUCUUCUUACTT against Muc4: the z-score is inactive: 0.773.

On to GCUGAUGCUCCAUUGAAUGTT against Prr27, for which the z-score is inactive: 0.228.

On to GGUCAACAACGAAUCCUUUTT against Rho, for which the z-score is inactive: 0.349.

Turning to GGAUCCAGAACUAAAAAUCTT against Pcdhga2, the z-score was inactive: 0.193.

Regarding GGUUUGCAUCUUCUUAUUCTT against Myd88, the z-score is inactive: -1.73.

GGUUUUUGAACAAAGGAGATT against Slc11a2: the z-score was inactive: -0.243.

Consider CCUCUACGAUGACUGGAUGTT against Sh3bp1, for which the z-score is inactive: 0.227.

For GGUAUUCCAAUAACUGUACTT against Fip1l1, the z-score is inactive: -0.269.

As for GGUGGAAUAUAGAAGUUUCTT against Arhgef28, the z-score is inactive: 0.708.

As to GCCAAACUAUCAGAGAUGGTT against Slc38a7, the z-score is inactive: 0.0528.

In the case of GGCAAGAAUAUGAAAAGCUTT against Hmmr, the z-score was inactive: -0.974.

For the sequence CGCAAUCAUGAGCUUCGUCTT against Eci2, the z-score was inactive: 0.137.

On to GAAUAUUGCUCAGUGCAAGTT against Slurp1, for which the z-score was inactive: 1.27.

As for GCUGCUACGUGUUCAAGGUTT against Ctss, the z-score was inactive: 0.00488.

With GGACUACCAUCGACCUUCATT against Nek2, the z-score was inactive: 1.15.

With CCUGCCUAUGUCUAGGCCATT against Tspyl3, the z-score was inactive: 0.589.

For the sequence GGACCUCCUCCCAAAGAUATT against Snrpb, the z-score is active: -2.83.

GGAAUGCUGAAGUAAAAAATT against Olfr1259: the z-score was inactive: -0.808.

GGGAACAGAAGUCAAGGCATT against Zbtb8os: the z-score was inactive: 0.223.

As to GGCCGUUUUUUGGCAUCGUTT against Acss1, the z-score is inactive: -1.71.

For the sequence GGAAAGACAAAGAACUCUATT against Ssu72, the z-score was inactive: -0.535.

GGAAAGGACCACCUAAGUUTT against Pde6g: the z-score was inactive: 0.0534.

As to GGCUGAGAAGCAGACUUCCTT against Dclk3, the z-score was inactive: 1.23.

On to GGAGAUCAAGCCGCACAUGTT against Ccnd3, for which the z-score was inactive: -0.479.

Turning to GGAAAGAUGAGCUGUCCUATT against Csta2, the z-score is inactive: -1.62.

Regarding CCGUCUGAUAGCAAUCCGATT against Olfr632, the z-score was inactive: -0.452.

Consider GCCUAUGCUCAACUUCUCGTT against Thap4, for which the z-score is active: -3.31.

As for GGACAAGUGUGUUGAUGGUTT against Strbp, the z-score was inactive: -1.53.

Take GGAACUCUGCCAAAGCUGUTT against Dffa: the z-score was inactive: 0.125.

Turning to CCUCAAGUGCGAAAACGUGTT against Tssk6, the z-score was inactive: 0.444.

With GCCCUUUAUAUGACUUGAGTT against Kcnj2, the z-score is inactive: -1.16.

As for ACCCUCACCUCGCAUGACUTT against Pcbd2, the z-score is inactive: -1.57.

Regarding GGAAACAGCAAUCAAAUACTT against Dhx40, the z-score was inactive: 0.483.

For GGAGUCAAAAAAAAUGCAATT against Ribc1, the z-score was inactive: 1.17.

GCAGCUGAAAAUCGAGAACTT against Ccdc113: the z-score was inactive: 1.2.

Turning to CCAUUCACAUUGUGUCAAATT against Krtap26-1, the z-score is inactive: -0.466.

In the case of GAUGUUUGUUUUCAGUGCCTT against Olfr1330, the z-score was inactive: -1.37.

For GGAUCCUUCGCUUUUAUCGTT against Nox1, the z-score is inactive: -0.343.

Take GCACUACUGCCCAUGAUUGTT against Agrn: the z-score was inactive: 0.873.

With “GGAUCCGCAUCUACAAGCUTT against 1700016K19Rik”, the z-score was inactive: 0.77.

As to GGAAGAACCUGCCAAGAUCTT against Nckap5, the z-score was inactive: -0.553.

GGAUCAUUCAGCAUUGUAGTT against Dnm1l: the z-score was inactive: 0.192.

As for GGUGAACAACUGGUUUAUUTT against Meis3, the z-score was inactive: 1.48.

As for GGAGGAGUAUGUUAAGGCCTT against Myh6, the z-score is inactive: 0.193.

GUUUCAGCCUGAGUGACAATT against Fam122a: the z-score was inactive: -0.119.

For the sequence GCAUCUGUGUCCAAGUACUTT against Jph1, the z-score is inactive: 0.967.

With CGGUUGUCUUUAAAGAUUCTT against Gprin1, the z-score was inactive: 0.634.

For GGUAAGAAAACUGACCUUATT against Abra, the z-score was inactive: -0.787.

For GGUAUUUAAUGGAAGCCUGTT against Acp7, the z-score was inactive: -0.537.

Regarding GGCUAUGACUAGCUAGAAUTT against Hoxc5, the z-score was inactive: -1.25.

For GGUCAACUAGCAGAAACCATT against Adgrv1, the z-score is inactive: -1.84.

In the case of GCUAGUUAGAACCUCGUUCTT against Cdk5, the z-score was inactive: 1.78.

With GCUGACCGAUGUCAUCCUCTT against Itpk1, the z-score is inactive: 1.12.

Turning to GCACCAAGUCGUAUAAACATT against Sh3glb1, the z-score is inactive: -0.391.

On to GGCCUUUGUACAUGUUAGGTT against Cplx3, for which the z-score was inactive: -0.31.

As to “GCUGCUUAUCUAGACCAGCTT against D630044L22Rik”, the z-score is inactive: -0.175.

For GGAUAAAUGGUUCUAGAAATT against Zfp706, the z-score is inactive: 1.52.

On to GGGUUGUAGAUGCGUGGAATT against Plch1, for which the z-score is inactive: 0.767.

In the case of GGAAAAAGAAACCAGUGUUTT against Relb, the z-score is inactive: -0.645.

Regarding GGCAAUCAUGGACCUUAUUTT against Spata9, the z-score was inactive: 1.8.

Turning to GGCAGUAACUGUAAGCCUGTT against Paxx, the z-score was inactive: 0.851.

Take GGAGGCAGACUUCAGGGAUTT against P3h1: the z-score is inactive: 0.199.

For GGAAGAUGCGCUUUCACAUTT against Gxylt2, the z-score was inactive: -1.95.

As for GCGGCAUUCGUCCAAAUUGTT against Trpt1, the z-score is inactive: 0.938.

Take GCUGUUGCACCAAUUAGUCTT against Dnajc5g: the z-score is inactive: -0.577.

Take GGAAUGUUGCCGUCAUGUUTT against Olfr568: the z-score was inactive: -0.0596.

For GGCCAACUCUACCUGAACATT against Defb22, the z-score is inactive: 0.44.

Take GGACAAAGAAGUGAAGUGUTT against Slc26a1: the z-score was inactive: -1.57.

Consider CCUACUACACUCAAGGGCATT against Pgc, for which the z-score is inactive: 0.0394.

On to GGAAGUCUCUAGGUUGUAUTT against Ddit4, for which the z-score is inactive: 0.0871.

For GGAGGCAGGAGCAAAACAUTT against Olfr1111, the z-score is inactive: -0.708.

GGAUAUUUACCAUCAGUGATT against Prl7a1: the z-score was inactive: -0.0908.

On to GGACACAUGGUGUUGACCATT against Parp12, for which the z-score was inactive: 0.0379.

As for GGAGGAAUUACAAUAGCCATT against Tenm1, the z-score is inactive: 1.57.

As to GCCAAGAGACUCAAGUAGCTT against Nkg7, the z-score is inactive: 0.479.

For the sequence GGAACAACUGAAAAUGAAGTT against Ppp1r21, the z-score was inactive: -1.21.

Turning to GGCCCAUAUCUGCUCUCAUTT against Ssc5d, the z-score is active: -2.04.

For GCUUCGCUCGCAUUCUUAUTT against Rsrc1, the z-score is inactive: -0.299.

In the case of UACAUUAGUAGAAUGGAGGTT against Mageb3, the z-score is inactive: -0.598.

For the sequence GGUUUAAACUUUCAUGUGGTT against Dffb, the z-score is inactive: 0.408.

Turning to GGAUAGCUGCCAACACUACTT against Baiap2l2, the z-score is inactive: -0.689.

Consider GCCAUUCUUCUCUUAGAAGTT against Npepl1, for which the z-score was inactive: -1.07.

For the origin of these results see PubChem BioAssay AID1508600 (Functional Genomics Laboratory (NCATS/FGL), 2020).
